From the supplement of paper PMC10849652
This is one part of the list.

Sequences of proteins named here, by UniProt entry; tags and fusion partners are left off. A change or cut given only in a name is not applied to a line headed by its entry.
UniProt Q14677: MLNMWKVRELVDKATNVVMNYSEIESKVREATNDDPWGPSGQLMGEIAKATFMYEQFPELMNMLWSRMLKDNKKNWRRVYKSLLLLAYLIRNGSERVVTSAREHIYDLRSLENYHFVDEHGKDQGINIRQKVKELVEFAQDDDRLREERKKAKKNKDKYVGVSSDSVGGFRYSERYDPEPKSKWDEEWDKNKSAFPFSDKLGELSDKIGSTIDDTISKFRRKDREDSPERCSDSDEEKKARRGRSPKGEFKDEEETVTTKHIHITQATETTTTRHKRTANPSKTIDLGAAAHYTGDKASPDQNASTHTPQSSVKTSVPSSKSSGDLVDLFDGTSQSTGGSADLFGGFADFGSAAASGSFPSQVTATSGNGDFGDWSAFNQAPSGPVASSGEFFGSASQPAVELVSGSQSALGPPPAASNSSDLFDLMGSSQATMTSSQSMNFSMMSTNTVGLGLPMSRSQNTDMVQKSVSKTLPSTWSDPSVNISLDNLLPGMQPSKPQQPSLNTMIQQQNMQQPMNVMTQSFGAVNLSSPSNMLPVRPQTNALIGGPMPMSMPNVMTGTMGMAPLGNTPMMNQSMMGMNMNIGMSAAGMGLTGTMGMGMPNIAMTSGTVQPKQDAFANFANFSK
UniProt Q9Y3D0: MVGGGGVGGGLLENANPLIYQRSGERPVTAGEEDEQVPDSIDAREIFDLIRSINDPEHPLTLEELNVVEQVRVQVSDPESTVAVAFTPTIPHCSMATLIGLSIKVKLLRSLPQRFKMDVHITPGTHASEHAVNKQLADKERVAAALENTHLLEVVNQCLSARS
UniProt Q8WUH1: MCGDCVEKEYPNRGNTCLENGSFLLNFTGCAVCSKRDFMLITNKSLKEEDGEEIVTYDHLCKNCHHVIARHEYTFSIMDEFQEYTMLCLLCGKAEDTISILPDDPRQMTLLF
UniProt Q6FI81: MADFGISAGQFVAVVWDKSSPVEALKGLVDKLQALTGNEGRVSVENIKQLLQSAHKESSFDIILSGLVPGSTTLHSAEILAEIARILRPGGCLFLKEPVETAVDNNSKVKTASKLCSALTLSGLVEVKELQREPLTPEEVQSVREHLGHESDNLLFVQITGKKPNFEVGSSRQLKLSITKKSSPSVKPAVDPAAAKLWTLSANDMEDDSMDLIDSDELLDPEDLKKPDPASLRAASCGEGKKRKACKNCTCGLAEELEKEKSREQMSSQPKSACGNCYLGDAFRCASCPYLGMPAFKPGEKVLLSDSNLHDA
UniProt P61024, whole entry, looked up: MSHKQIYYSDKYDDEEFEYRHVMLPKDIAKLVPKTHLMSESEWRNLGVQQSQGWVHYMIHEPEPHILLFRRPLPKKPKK
UniProt P09496: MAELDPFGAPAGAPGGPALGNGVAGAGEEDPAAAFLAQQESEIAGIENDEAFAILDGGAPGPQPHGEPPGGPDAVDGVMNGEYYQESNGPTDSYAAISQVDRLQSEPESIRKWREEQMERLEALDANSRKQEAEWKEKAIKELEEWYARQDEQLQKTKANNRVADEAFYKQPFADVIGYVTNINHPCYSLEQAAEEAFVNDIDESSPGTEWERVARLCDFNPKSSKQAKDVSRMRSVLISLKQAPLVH
UniProt Q9ULV3: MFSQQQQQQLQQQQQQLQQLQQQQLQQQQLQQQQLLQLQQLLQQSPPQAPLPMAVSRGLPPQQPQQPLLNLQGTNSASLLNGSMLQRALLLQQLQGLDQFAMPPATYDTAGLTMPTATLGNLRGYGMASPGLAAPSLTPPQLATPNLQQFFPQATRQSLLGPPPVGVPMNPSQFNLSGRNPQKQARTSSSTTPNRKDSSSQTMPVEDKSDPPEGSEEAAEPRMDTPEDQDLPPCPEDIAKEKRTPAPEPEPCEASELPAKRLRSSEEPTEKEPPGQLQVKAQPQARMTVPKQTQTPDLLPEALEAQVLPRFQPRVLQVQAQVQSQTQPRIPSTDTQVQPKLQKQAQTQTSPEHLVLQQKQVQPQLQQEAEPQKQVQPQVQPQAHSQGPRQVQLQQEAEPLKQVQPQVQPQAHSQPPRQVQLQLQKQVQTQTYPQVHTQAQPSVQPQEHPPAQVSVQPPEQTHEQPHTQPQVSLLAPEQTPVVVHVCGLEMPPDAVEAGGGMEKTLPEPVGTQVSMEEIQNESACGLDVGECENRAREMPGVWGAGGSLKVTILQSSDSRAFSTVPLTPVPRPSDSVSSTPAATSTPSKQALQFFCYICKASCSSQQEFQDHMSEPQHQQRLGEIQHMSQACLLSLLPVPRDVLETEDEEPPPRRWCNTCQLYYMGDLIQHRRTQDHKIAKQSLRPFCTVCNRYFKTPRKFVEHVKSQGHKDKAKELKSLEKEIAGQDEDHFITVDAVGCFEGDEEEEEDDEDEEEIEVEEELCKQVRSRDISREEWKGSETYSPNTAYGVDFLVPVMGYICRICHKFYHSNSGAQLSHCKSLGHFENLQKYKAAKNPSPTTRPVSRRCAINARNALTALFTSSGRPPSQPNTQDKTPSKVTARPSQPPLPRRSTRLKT
UniProt P51798: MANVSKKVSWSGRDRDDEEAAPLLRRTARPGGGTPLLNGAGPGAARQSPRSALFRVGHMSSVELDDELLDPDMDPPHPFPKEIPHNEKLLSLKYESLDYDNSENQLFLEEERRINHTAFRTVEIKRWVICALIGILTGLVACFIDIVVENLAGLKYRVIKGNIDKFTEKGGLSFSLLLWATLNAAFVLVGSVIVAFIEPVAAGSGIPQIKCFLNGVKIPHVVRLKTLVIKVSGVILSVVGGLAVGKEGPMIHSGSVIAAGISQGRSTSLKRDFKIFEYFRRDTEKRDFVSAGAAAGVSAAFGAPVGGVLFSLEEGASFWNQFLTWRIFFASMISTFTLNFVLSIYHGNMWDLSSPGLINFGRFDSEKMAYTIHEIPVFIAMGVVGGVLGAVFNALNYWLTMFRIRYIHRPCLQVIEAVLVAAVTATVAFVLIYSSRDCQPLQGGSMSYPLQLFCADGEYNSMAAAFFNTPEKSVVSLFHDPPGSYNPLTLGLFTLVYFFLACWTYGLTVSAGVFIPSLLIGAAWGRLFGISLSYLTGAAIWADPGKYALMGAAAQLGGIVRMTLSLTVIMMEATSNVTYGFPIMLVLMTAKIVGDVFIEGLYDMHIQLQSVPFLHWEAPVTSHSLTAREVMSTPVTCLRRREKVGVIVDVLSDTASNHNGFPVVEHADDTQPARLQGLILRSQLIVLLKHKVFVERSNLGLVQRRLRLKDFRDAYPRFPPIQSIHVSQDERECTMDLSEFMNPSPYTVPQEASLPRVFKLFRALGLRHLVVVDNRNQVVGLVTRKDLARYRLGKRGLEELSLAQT
UniProt Q96S66: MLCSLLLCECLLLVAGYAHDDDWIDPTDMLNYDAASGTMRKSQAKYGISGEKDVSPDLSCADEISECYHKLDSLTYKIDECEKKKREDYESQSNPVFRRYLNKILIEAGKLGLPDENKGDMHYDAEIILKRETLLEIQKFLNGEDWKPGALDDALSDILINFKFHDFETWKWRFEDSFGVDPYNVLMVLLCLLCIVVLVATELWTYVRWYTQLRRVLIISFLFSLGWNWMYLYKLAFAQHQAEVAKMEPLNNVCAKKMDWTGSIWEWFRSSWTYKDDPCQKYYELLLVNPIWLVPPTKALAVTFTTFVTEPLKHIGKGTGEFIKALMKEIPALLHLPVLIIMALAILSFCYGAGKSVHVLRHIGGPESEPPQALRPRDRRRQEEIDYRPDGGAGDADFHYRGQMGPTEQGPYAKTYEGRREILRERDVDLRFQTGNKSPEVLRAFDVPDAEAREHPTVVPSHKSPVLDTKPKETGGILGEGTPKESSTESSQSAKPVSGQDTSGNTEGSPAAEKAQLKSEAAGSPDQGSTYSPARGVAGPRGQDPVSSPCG
UniProt Q9Y3Y2: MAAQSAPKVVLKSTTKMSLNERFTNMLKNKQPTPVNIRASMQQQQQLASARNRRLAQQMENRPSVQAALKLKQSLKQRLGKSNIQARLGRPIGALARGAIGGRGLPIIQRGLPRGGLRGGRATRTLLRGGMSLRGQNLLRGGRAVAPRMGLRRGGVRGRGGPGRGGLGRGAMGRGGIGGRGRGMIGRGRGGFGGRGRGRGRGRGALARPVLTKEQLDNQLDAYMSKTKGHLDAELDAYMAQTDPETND
UniProt P12277: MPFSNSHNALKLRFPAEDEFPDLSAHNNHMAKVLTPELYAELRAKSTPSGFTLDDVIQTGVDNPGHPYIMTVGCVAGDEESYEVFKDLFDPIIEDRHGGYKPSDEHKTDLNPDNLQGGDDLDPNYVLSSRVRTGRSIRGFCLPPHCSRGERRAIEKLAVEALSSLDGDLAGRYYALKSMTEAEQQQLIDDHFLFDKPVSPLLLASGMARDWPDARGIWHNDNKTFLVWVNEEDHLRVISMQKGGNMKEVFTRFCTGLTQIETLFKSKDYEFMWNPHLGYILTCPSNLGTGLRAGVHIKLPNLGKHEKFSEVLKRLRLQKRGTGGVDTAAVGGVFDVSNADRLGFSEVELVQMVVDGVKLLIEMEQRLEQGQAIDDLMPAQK
UniProt O96017, whole entry, looked up: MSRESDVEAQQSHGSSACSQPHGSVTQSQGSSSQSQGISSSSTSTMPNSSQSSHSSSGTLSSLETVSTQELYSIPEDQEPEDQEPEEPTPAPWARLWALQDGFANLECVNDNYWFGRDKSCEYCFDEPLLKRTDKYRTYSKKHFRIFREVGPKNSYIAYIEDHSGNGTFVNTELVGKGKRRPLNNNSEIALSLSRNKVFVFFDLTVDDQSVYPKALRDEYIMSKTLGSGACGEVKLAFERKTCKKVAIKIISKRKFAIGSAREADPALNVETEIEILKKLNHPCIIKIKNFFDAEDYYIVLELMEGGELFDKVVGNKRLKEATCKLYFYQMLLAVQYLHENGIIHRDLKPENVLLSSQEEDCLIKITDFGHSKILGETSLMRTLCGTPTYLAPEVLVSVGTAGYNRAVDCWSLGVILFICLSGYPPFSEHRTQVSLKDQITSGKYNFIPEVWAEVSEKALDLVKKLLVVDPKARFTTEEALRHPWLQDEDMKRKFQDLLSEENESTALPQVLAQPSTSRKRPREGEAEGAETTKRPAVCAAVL
UniProt Q8IYA6: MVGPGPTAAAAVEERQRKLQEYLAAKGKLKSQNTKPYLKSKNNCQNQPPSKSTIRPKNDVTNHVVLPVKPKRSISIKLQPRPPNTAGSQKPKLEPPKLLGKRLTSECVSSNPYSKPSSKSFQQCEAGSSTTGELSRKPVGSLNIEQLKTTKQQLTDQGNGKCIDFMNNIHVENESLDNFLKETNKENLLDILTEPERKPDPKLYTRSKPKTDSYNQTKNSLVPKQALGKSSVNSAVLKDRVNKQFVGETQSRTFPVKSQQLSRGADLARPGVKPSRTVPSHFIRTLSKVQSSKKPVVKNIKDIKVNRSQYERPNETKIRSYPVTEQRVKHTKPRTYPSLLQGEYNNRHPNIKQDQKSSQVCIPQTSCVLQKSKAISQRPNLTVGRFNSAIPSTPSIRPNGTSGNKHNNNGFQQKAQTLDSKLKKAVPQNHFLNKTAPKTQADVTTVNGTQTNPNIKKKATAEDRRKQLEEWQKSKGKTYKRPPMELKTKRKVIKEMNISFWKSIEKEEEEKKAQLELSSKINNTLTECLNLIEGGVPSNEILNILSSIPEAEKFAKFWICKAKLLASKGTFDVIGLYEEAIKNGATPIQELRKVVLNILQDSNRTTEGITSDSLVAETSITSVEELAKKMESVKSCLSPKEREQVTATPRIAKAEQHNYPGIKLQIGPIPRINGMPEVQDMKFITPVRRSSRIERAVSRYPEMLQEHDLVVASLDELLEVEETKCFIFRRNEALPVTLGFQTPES
UniProt Q9NZZ3: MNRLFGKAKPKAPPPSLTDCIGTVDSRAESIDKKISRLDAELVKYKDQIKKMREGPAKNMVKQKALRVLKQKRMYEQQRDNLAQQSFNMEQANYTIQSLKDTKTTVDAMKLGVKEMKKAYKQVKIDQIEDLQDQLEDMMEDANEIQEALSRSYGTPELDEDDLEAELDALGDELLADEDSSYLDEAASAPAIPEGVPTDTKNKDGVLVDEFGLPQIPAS
UniProt Q13112, whole entry, looked up: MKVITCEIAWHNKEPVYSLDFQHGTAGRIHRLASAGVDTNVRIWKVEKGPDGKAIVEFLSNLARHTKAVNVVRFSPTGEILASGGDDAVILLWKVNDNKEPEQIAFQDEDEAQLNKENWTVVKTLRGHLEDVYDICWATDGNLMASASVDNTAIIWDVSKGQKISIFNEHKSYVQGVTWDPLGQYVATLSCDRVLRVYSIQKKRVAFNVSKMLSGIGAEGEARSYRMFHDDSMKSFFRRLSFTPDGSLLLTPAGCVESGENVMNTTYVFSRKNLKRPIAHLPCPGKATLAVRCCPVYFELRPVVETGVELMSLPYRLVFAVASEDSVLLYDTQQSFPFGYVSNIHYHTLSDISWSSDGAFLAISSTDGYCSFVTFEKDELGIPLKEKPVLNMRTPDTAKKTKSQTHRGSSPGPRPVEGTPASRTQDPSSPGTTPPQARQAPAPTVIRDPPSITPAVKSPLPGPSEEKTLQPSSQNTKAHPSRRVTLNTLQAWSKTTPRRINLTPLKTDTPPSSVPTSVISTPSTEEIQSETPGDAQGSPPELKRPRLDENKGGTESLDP

What was measured:
Test in all cases: log2 fold change, soluble protein after heating vs DMSO (PISA); higher = thermal stabilisation; K562 lysate, 10 uM; active = over 0.2 and 3.5 SD of the protein, either way, in both replicates (recomputed)
[1] = compound: NCC(=O)Nc1ccc(-n2nc(C(F)(F)F)cc2-c2ccc3c(ccc4ccccc43)c2)cc1
Summary of the method: (§1)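 Pellets of K562 cells were dounce-homogenised in PBS pH 7.4 with 1 mM MgCl2, and the crude extract was held at 1 mg/mL protein for a 30 min treatment with 10 μM compound. Aliquots were heated for 3 min over 48°C-58°C and pooled before NP-40 was added to 0.5% at 4°C. The supernatant from 21,000xg for 90 min was quantified by TMTpro 16plex LC-MS/MS with channel sums equalised. Values are reported from duplicates as log-two fold change in thermal stability relative to solvent controls.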

vorinostat = compound: O=C(CCCCCCC(=O)Nc1ccccc1)NO [vorinostat]
Summary of the method: as §1

silmitasertib = compound: O=C(O)c1ccc2c(c1)nc(Nc1cccc(Cl)c1)c1ccncc12 [silmitasertib]
Summary of the method: as §1

[2] = compound: O=C1NC(=O)C(c2cnc3ccccn23)=C1c1cn2c3c(cc(F)cc13)CN(C(=O)N1CCCCC1)CC2
Summary of the method: as §1

entospletinib = compound: c1cn2cc(-c3ccc4cn[nH]c4c3)nc(Nc3ccc(N4CCOCC4)cc3)c2n1 [entospletinib]
Summary of the method: as §1

| Target | log2 fold change [1] | log2 fold change (vorinostat) | log2 fold change (silmitasertib) | log2 fold change [2] | log2 fold change (entospletinib) |
| --- | --- | --- | --- | --- | --- |
| CLINT1 isoform 3 (UniProt Q14677) | inactive: 0 | inactive: 0.16 | inactive: -0.098 | inactive: -0.071 | inactive: 0.007 |
| CLIP4 (UniProt Q8N3C7) | inactive: 0.014 | inactive: 0.046 | inactive: 0.034 | inactive: 0.031 | inactive: -0.094 |
| CIAO2B (UniProt Q9Y3D0) | inactive: 0.008 | inactive: -0.161 | inactive: -0.007 | inactive: 0.018 | inactive: 0 |
| CLASRP (UniProt Q8N2M8) | inactive: 0.017 | inactive: 0.082 | inactive: -0.015 | inactive: -0.052 | inactive: 0.015 |
| CHIC1 (UniProt Q5VXU3) | inactive: -0.001 | – | – | – | – |
| CIP2A (UniProt Q8TCG1) | inactive: 0.043 | active: -0.608 | inactive: 0.055 | inactive: 0.011 | inactive: 0.008 |
| CHD8 (UniProt Q9HCK8) | inactive: 0.085 | inactive: -0.066 | inactive: 0.074 | inactive: 0.039 | inactive: -0.035 |
| CHKA (UniProt P35790) | inactive: 0.021 | inactive: 0.025 | inactive: -0.009 | inactive: -0.04 | inactive: -0.004 |
| CHD7 (UniProt Q9P2D1) | inactive: -0.071 | inactive: -0.187 | inactive: 0.053 | inactive: 0.086 | inactive: -0.026 |
| CHCHD2P9 (UniProt Q5T1J5) | inactive: -0.028 | inactive: -0.013 | inactive: -0.096 | inactive: 0.002 | inactive: -0.074 |
| CHCHD1 (UniProt Q96BP2) | inactive: 0.131 | inactive: 0.055 | inactive: -0.039 | inactive: -0.014 | inactive: -0.081 |
| CHST11 (UniProt Q9NPF2) | inactive: -0.144 | inactive: 0.149 | inactive: 0.062 | inactive: -0.03 | inactive: 0.113 |
| CMAS (UniProt Q8NFW8) | inactive: 0.008 | inactive: -0.051 | inactive: 0.003 | inactive: -0.016 | inactive: 0.048 |
| CKMT1A (UniProt P12532) | inactive: 0.017 | inactive: 0.07 | inactive: -0.041 | inactive: -0.004 | inactive: -0.047 |
| CMSS1 (UniProt Q9BQ75) | inactive: 0.025 | active: -0.272 | inactive: 0.038 | inactive: -0.024 | inactive: -0.013 |
| CHURC1 isoform 2 (UniProt Q8WUH1) | inactive: -0.048 | active: 0.285 | inactive: -0.039 | inactive: -0.043 | inactive: -0.128 |
| CLPP (UniProt Q16740) | inactive: -0.078 | inactive: 0.155 | inactive: 0.009 | inactive: -0.034 | inactive: -0.028 |
| CIT isoform 4 (UniProt O14578) | inactive: 0.022 | inactive: -0.195 | inactive: -0.015 | inactive: 0.015 | inactive: -0.029 |
| CIAPIN1 (UniProt Q6FI81) | inactive: 0.005 | inactive: 0.018 | inactive: -0.022 | inactive: 0.003 | inactive: 0.01 |
| CIRBP (UniProt Q14011) | inactive: 0 | inactive: 0.2 | inactive: -0.05 | inactive: -0.009 | inactive: 0.002 |
| CLUAP1 (UniProt I3L2E1) | inactive: 0.141 | inactive: -0.13 | inactive: -0.049 | inactive: 0.303 | inactive: 0.011 |
| CKS1B (UniProt P61024) | inactive: -0.059 | inactive: 0.115 | inactive: -0.004 | inactive: -0.076 | inactive: -0.021 |
| CLTA (UniProt P09496) | inactive: -0.047 | inactive: 0.005 | inactive: 0.073 | inactive: -0.003 | inactive: -0.022 |
| CHKB (UniProt Q9Y259) | inactive: -0.004 | inactive: 0.072 | inactive: 0.014 | inactive: -0.034 | inactive: -0.014 |
| CIZ1 (UniProt Q9ULV3) | inactive: 0.02 | inactive: 0.077 | inactive: -0.071 | inactive: 0.007 | inactive: -0.032 |
| CHMP2A (UniProt O43633) | inactive: 0.004 | inactive: 0.116 | inactive: 0.016 | inactive: 0.013 | inactive: 0.025 |
| CMTM3 (UniProt Q96MX0) | inactive: 0.05 | active: -0.516 | inactive: -0.004 | inactive: -0.03 | inactive: -0.004 |

| Target | log2 fold change [1] | log2 fold change (vorinostat) | log2 fold change (silmitasertib) | log2 fold change [2] | log2 fold change (entospletinib) |
| --- | --- | --- | --- | --- | --- |
| CHAF1A (UniProt Q13111) | inactive: 0.004 | active: -0.402 | inactive: -0.004 | inactive: 0.004 | inactive: -0.082 |
| CLCN7 (UniProt P51798) | inactive: -0.014 | inactive: 0.049 | inactive: -0.002 | inactive: -0.032 | inactive: 0.012 |
| CHMP4B (UniProt Q9H444) | inactive: 0.036 | inactive: 0.058 | inactive: -0.014 | inactive: -0.043 | inactive: -0.027 |
| CLEC16A (UniProt Q2KHT3) | inactive: 0.015 | inactive: 0.072 | inactive: -0.003 | inactive: 0.012 | inactive: 0.002 |
| CIB1 (UniProt Q99828) | inactive: -0.027 | inactive: 0.049 | inactive: -0.006 | inactive: -0.037 | inactive: -0.091 |
| CHUK (UniProt O15111) | inactive: -0.016 | active: -0.492 | inactive: 0.103 | inactive: 0.054 | inactive: 0.012 |
| CLCC1 (UniProt Q96S66) | inactive: 0.033 | inactive: 0.08 | inactive: 0 | inactive: 0.014 | inactive: 0.003 |
| CHTOP isoform 3 (UniProt Q9Y3Y2) | inactive: 0.022 | inactive: -0.211 | inactive: -0.049 | inactive: 0.056 | inactive: 0.019 |
| CLCN3 (UniProt P51790) | inactive: -0.165 | inactive: -0.171 | inactive: 0.118 | inactive: -0.245 | inactive: 0.025 |
| CNBP isoform 4 (UniProt P62633) | inactive: -0.027 | inactive: -0.191 | inactive: 0.099 | inactive: 0.067 | inactive: -0.096 |
| CKB (UniProt P12277) | inactive: 0 | inactive: -0.091 | inactive: 0.017 | inactive: -0.015 | inactive: -0.005 |
| CHPF2 (UniProt Q9P2E5) | inactive: -0.031 | inactive: -0.076 | inactive: 0.361 | inactive: -0.009 | inactive: -0.019 |
| CHEK2 (UniProt O96017) | inactive: -0.021 | inactive: -0.128 | inactive: 0.04 | inactive: -0.006 | inactive: -0.033 |
| CLTC (UniProt Q00610) | inactive: 0.033 | inactive: -0.026 | inactive: 0.039 | inactive: 0.031 | inactive: 0.014 |
| CHCHD6 (UniProt Q9BRQ6) | inactive: 0.022 | inactive: 0.321 | inactive: -0.019 | inactive: -0.022 | inactive: 0.038 |
| CLUAP1 (UniProt Q96AJ1) | inactive: -0.04 | inactive: -0.197 | inactive: -0.053 | inactive: 0 | inactive: -0.079 |
| CLPTM1 (UniProt O96005) | inactive: -0.024 | inactive: 0.074 | inactive: 0.031 | inactive: 0.013 | inactive: -0.034 |
| CHMP4C (UniProt Q96CF2) | inactive: -0.007 | inactive: 0.126 | inactive: -0.065 | inactive: 0.018 | inactive: 0.003 |
| CHD4 isoform 2 (UniProt Q14839) | inactive: 0.023 | active: -0.284 | inactive: -0.006 | inactive: 0.015 | inactive: -0.01 |
| CKAP2L (UniProt Q8IYA6) | inactive: 0.108 | inactive: -0.029 | inactive: 0.089 | inactive: 0.003 | inactive: -0.254 |
| CHMP1A (UniProt Q9HD42) | inactive: -0.013 | inactive: 0.116 | inactive: -0.02 | inactive: -0.052 | inactive: 0.005 |
| CHMP4A isoform 2 (UniProt Q9BY43) | inactive: 0.011 | inactive: 0.1 | inactive: -0.027 | inactive: -0.051 | inactive: 0.019 |
| CLIC6 (UniProt Q96NY7) | inactive: 0.051 | inactive: -0.15 | inactive: -0.004 | inactive: -0.014 | inactive: 0.002 |
| CIAO2A (UniProt Q9H5X1) | inactive: 0.021 | active: 0.368 | inactive: -0.016 | inactive: -0.037 | inactive: 0.009 |
| CHMP5 (UniProt Q9NZZ3) | inactive: -0.008 | inactive: 0.113 | inactive: -0.003 | inactive: -0.006 | inactive: 0.013 |
| CLPX (UniProt O76031) | inactive: 0.059 | inactive: -0.051 | inactive: 0.016 | inactive: 0.027 | inactive: 0.056 |
| CHAF1B (UniProt Q13112) | inactive: 0.021 | inactive: -0.044 | inactive: -0.008 | inactive: 0.01 | inactive: 0.014 |

For reference, part of the list above.

| Target | log2 fold change [1] | log2 fold change (vorinostat) | log2 fold change (silmitasertib) | log2 fold change [2] | log2 fold change (entospletinib) |
| --- | --- | --- | --- | --- | --- |
| CLCN3 (UniProt P51790) | inactive: -0.165 | inactive: -0.171 | inactive: 0.118 | inactive: -0.245 | inactive: 0.025 |
| CNBP isoform 4 (UniProt P62633) | inactive: -0.027 | inactive: -0.191 | inactive: 0.099 | inactive: 0.067 | inactive: -0.096 |
| CKB (UniProt P12277) | inactive: 0 | inactive: -0.091 | inactive: 0.017 | inactive: -0.015 | inactive: -0.005 |
| CHPF2 (UniProt Q9P2E5) | inactive: -0.031 | inactive: -0.076 | inactive: 0.361 | inactive: -0.009 | inactive: -0.019 |
